Assay: general procedure: solution-phase peptide synthesis; EDC, HOBt
Conditions: for crude HPLC purity: 210 nm
[1] = late stage modification step, acetate, run 1
[2] = late stage modification step, acetate, run 2

Row | Substance | crude HPLC purity [1] [area %] | crude HPLC purity [2] [area %] | step yield [1] [%] | step yield [2] [%] | step yield (late stage modification step, acetate, run 3) [%] | step yield (late stage modification step, acetate, run 4) [%] | step yield (late stage modification step, tris trifluoroacetate, run 1) [%] | step yield (late stage modification step, tris trifluoroacetate, run 2) | step yield (coupling step, acetate) [%]
1 | D-arginyl-2,6-dimethyl-L-tyrosyl-L-lysyl-L-phenylalaninamide | 84 | 95 | 99 | 95 | 94 | 92 | 34 | adjusted yield of 67% | 
2 | N^2-[(benzyloxy)carbonyl]-N^5-[{[(benzyloxy)carbonyl]amino}{[(benzyloxy)carbonyl]imino}methyl]-D-ornithyl-2,6-dimethyl-L-tyrosyl-N^6-{[(2-chlorobenzyl)oxy]carbonyl}-L-lysyl-L-phenylalaninamide |  |  |  |  |  |  |  |  | 73
3 | N^5-[amino(nitroimino)methyl]-N^2-(tert-butoxycarbonyl)-D-ornithyl-2,6-dimethyl-L-tyrosyl-N^6-{[(2-chlorobenzyl)oxy]carbonyl}-L-lysyl-L-phenylalaninamide |  |  |  |  |  |  |  |  | 90
